Laboratory results as given in patent US10563263B2, “Genetic polymorphisms associated with statin response and cardiovascular diseases, methods of detection and uses thereof” (CELERA CORPORATION, priority 2010, dated 2020).
The source gives many values for each of these; only a part stands here.

System: CVD (CHD or stroke)
Experiment: WOSCOPS: SNP by pravastatin treatment interaction, logistic regression (synergy index), CVD endpoint
Format: in vivo, human
Settings: WOSCOPS
Excerpt: CARE was a secondary prevention trial and WOSCOPS was a primary prevention trial.
The CHD endpoint was defined in the analyses herein of CARE as a composite endpoint of fatal CHD, definite non-fatal MI, or revascularization, and was defined in the analyses herein of WOSCOPS as a composite endpoint of death from CHD, nonfatal MI, or revascularization. In both the CARE and WOSCOPS analyses herein, the CVD endpoint was defined as a composite endpoint of CHD or stroke. […] Revascularization, which can include percutaneous transluminal coronary angioplasty (PTCA), stent placement, and coronary artery bypass graft (CABG), are medical interventions that indicate the presence of CHD.
Cohort and case-only study designs were used to identify SNPs associated with response to statin treatment.
For each SNP, a logistic regression model having treatment status as the dependent variable and SNP as the independent predictor variable was performed, with terms for age, sex and race included in the model as covariates. The anti-log of the regression coefficient corresponding to the SNP is an estimate of the synergy index (SI) (Davis et al., “Imputing gene-treatment interactions when the genotype distribution is unknown using case-only and putative placebo analyses-a new method for the Genetics of Hypertension Associated Treatment (GenHAT) study”, Statistics in Medicine 23: (2004), pages 2413-2427). The SI is a ratio of odds ratios: for example in the CARE and WOSCOPS studies, the SI represents the factor by which the odds-ratio of statin treatment, compared with placebo, among major homozygous individuals is multiplied by in order to obtain the odds-ratio of treatment vs. placebo among heterozygous individuals; and multiplied by a second time to obtain the odds-ratio of treatment vs. placebo in minor homozygous individuals. […] In a randomized clinical trial, genotype and treatment are independent by design.

## CC[C@H](C)C(=O)O[C@H]1C[C@H](O)C=C2C=C[C@H](C)[C@H](CC[C@@H](O)C[C@@H](O)CC(=O)O)[C@H]21 [Pravastatin, pravastatin]
rs264126 allele C DOM Imputed
  OR: 0.7975
rs264129 allele T DOM Imputed
  OR: 0.6113
rs608278, allele A, ADD, Imputed
  OR: 0.6427
rs613799, allele C, DOM, Imputed
  OR: 1.426
rs644041, allele G, ADD, Imputed
  OR: 1.523
rs644041, allele G, DOM, Imputed
  OR: 1.58
rs670593, allele A, REC, Imputed
  OR: 0.6178
rs687047, allele C, ADD, Imputed
  OR: 0.7104
rs688358, allele A, ADD, Imputed
  OR: 0.6857
rs710832, allele A, REC, Genotyped
  OR: 0.2657
rs712531, allele A, DOM, Imputed
  OR: 1.787
rs722927, allele G, ADD, Imputed
  OR: 0.4322
rs722927, allele G, DOM, Imputed
  OR: 0.433
rs726424, allele G, ADD, Genotyped
  OR: 0.7473
rs737542, allele A, REC, Imputed
  OR: 3.431
rs742827, allele A, ADD, Imputed
  OR: 1.416
rs755117, allele A, DOM, Imputed
  OR: 1.758
rs757173, allele G, DOM, Genotyped
  OR: 0.683
rs2243860 allele A REC Imputed
  OR: 2.063
rs2246564 allele T DOM Imputed
  OR: 0.4711
rs2248236 allele C DOM Imputed
  OR: 0.6667
rs2250340 allele T DOM Imputed
  OR: 0.4723
rs2257192 allele G DOM Imputed
  OR: 0.4711
rs2270584 allele A DOM Imputed
  OR: 0.5988
rs2270586 allele A DOM Imputed
  OR: 0.5858
rs2270589 allele A ADD Imputed
  OR: 0.6907
rs2270589 allele A DOM Imputed
  OR: 0.4396
rs2296889 allele C DOM Imputed
  OR: 1.88
rs2301346 allele C ADD Imputed
  OR: 1.627
rs2301346 allele C DOM Imputed
  OR: 2.008
rs2327929 allele G REC Imputed
  OR: 1.756
rs2357486 allele C REC Imputed
  OR: 1.682
rs2373793 allele G DOM Imputed
  OR: 1.775
rs2377622 allele T REC Imputed
  OR: 0.5046
rs2383903 allele G DOM Imputed
  OR: 0.5866
rs2389866 allele C DOM Imputed
  OR: 0.6667
rs2389869 allele C DOM Imputed
  OR: 0.6667
rs2418541 allele A DOM Imputed
  OR: 0.6113
rs2418542 allele A DOM Imputed
  OR: 0.6113
rs2418548 allele C DOM Imputed
  OR: 0.6382
rs2476976 allele C DOM Imputed
  OR: 1.351
rs2483639 allele A DOM Imputed
  OR: 0.4711
rs2483640 allele A DOM Imputed
  OR: 0.4711
rs2544780 allele T REC Imputed
  OR: 1.683
rs2586458 allele T DOM Imputed
  OR: 0.4393
rs2593272 allele G ADD Imputed
  OR: 0.5962
rs2593273 allele T ADD Imputed
  OR: 0.5962
rs2622499 allele G DOM Imputed
  OR: 0.6667
rs2656822 allele T ADD Imputed
  OR: 0.5962
rs2656823 allele G ADD Imputed
  OR: 0.5962
rs2656825 allele T ADD Imputed
  OR: 0.558
rs2764766 allele C REC Imputed
  OR: 1.776
rs2793101 allele T ADD Imputed
  OR: 0.6263
rs2793101 allele T DOM Imputed
  OR: 0.5997
rs2795871 allele A ADD Imputed
  OR: 0.3627
rs2795886 allele A ADD Imputed
  OR: 0.3343
rs2795886 allele A DOM Imputed
  OR: 0.3343
rs2870464 allele G DOM Imputed
  OR: 1.373
rs2875528 allele T DOM Imputed
  OR: 2.42
rs6040636, allele T, ADD, Imputed
  OR: 1.429
rs6040638, allele C, ADD, Imputed
  OR: 1.429
rs6040644, allele A, ADD, Imputed
  OR: 1.429
rs6040667, allele T, ADD, Imputed
  OR: 1.419
rs6040668, allele C, ADD, Imputed
  OR: 1.419
rs6053005, allele C, DOM, Imputed
  OR: 0.3707
rs6054405, allele A, REC, Imputed
  OR: 1.796
rs6075186, allele G, DOM, Imputed
  OR: 0.6821
rs6111540, allele A, ADD, Imputed
  OR: 0.7778
rs6131206, allele C, ADD, Imputed
  OR: 1.462
rs6131208, allele T, ADD, Imputed
  OR: 1.419
rs6131919, allele G, DOM, Imputed
  OR: 0.6821
rs6134243, allele C, ADD, Imputed
  OR: 1.429
rs6136020, allele A, DOM, Imputed
  OR: 0.6821
rs6464377, allele C, DOM, Imputed
  OR: 1.743
rs6474230, allele T, DOM, Imputed
  OR: 1.832
rs6476565, allele A, DOM, Imputed
  OR: 0.4711
rs6511286, allele T, ADD, Imputed
  OR: 1.657
rs6541829, allele C, REC, Genotyped
  OR: 3.048
rs6544721, allele G, DOM, Imputed
  OR: 1.782
rs6544728, allele T, DOM, Imputed
  OR: 1.8
rs6565910, allele G, DOM, Imputed
  OR: 0.6325
rs6581985, allele G, REC, Imputed
  OR: 2.122
rs6685186, allele T, ADD, Imputed
  OR: 1.364
rs6722640, allele T, DOM, Imputed
  OR: 0.5778
rs6746170, allele A, DOM, Imputed
  OR: 1.811
rs6805139, allele G, DOM, Imputed
  OR: 1.64
rs6808571, allele G, ADD, Imputed
  OR: 1.439
rs6816479, allele A, REC, Imputed
  OR: 2.214
rs6865976, allele C, DOM, Imputed
  OR: 0.5474
rs6871041, allele G, DOM, Imputed
  OR: 0.6093
rs6908481, allele C, REC, Imputed
  OR: 1.848
rs6917224, allele A, ADD, Imputed
  OR: 1.351
rs6920677, allele G, DOM, Imputed
  OR: 0.5128
rs6994498, allele G, DOM, Imputed
  OR: 1.832
rs6998772, allele T, DOM, Imputed
  OR: 2.739
rs7022281, allele C, ADD, Imputed
  OR: 0.7264
rs7022281, allele C, REC, Imputed
  OR: 0.6555
rs7043983, allele T, DOM, Imputed
  OR: 0.4711
rs7077799, allele A, DOM, Imputed
  OR: 1.355
rs7088947, allele A, ADD, Imputed
  OR: 0.3545
rs7089661, allele C, DOM, Imputed
  OR: 1.351
rs7102072, allele A, DOM, Imputed
  OR: 0.6088
rs7129817, allele T, ADD, Imputed
  OR: 0.6903
rs7134262, allele T, REC, Imputed
  OR: 1.737
rs7138300, allele C, ADD, Imputed
  OR: 0.7632
rs7138300, allele C, DOM, Imputed
  OR: 0.5772
rs7295817, allele C, ADD, Imputed
  OR: 0.7394
rs7295817, allele C, REC, Imputed
  OR: 0.747
rs7297372, allele A, ADD, Imputed
  OR: 0.7506
rs7298255, allele A, ADD, Imputed
  OR: 0.7489
rs7298255, allele A, DOM, Imputed
  OR: 0.571
rs7305832, allele C, REC, Imputed
  OR: 1.737
rs7446891, allele G, DOM, Imputed
  OR: 0.5964
rs7448641, allele C, ADD, Imputed
  OR: 0.235
rs7448641, allele C, DOM, Imputed
  OR: 0.235
rs7460605, allele G, DOM, Imputed
  OR: 1.533
rs7468898, allele T, ADD, Imputed
  OR: 1.539
rs7501186, allele A, DOM, Imputed
  OR: 1.277
